Source: the supplement of paper PMC7877785
± gives the uncertainty stated by the source. The uncertainty is large for many entries.

Assay: self-splicing fitness, log relative to wild type (ln ratio); higher = more splicing; Tetrahymena group I intron in knt gene, E. coli kanamycin selection, DiMSum; sequences stand for … in CUCUCU…GGAGGGAAAAGUUAUCAGGCAUGCACCUGGUAGCUAGUCUUUAAACCAAUAGAUUGCAUCGGUUUAAAAGGCAAGACCGUCAAAUUGCGGGAAAGGGGUCAACAGCCGUUCAGUACCAAGUCUCAGGGGAAACUUUGAGAUGGCCUUGCAAAGGGUAUGGUAAUAAGCUGACGGACAUGGUCCUAACCACGCAGCCAAGUCCUAAGUCAACAGAUCUUCUGUUGAUAUGGAUGCAGUUCACAGACUAAAUGUCGGUCGGGGAAGAUGUAUUCUUCUCAUAAGAUAUAGUCGGACCUCUCCUUAAUGGGAGCUAGCGGAUGAAGUGAUGCAACACUGGAGCCGCUGGGAACUAAUUUGUAUGCGAAAGUAUAUUGAUUAGUUUUGGAGUACUCGUGGUCG
Outline: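 Six replicate transformations of E. coli BL21(DE3) with a pET-22b(+) library were grown overnight at 37°C or 30°C. The library randomised all eight P1ex-region intron nucleotides, the intron lying in the knt kanamycin-resistance gene, and plates were LB agar with or without 25 μg/mL kanamycin plus 100 μg/mL carbenicillin, 50 μM IPTG and 0.2% rhamnose. Pooled colonies were amplicon-sequenced on an Illumina HiSeq 2500, and fitness is the DiMSum error-weighted combination of wild-type-normalised replicate fold changes, kanamycin versus none.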

Sequence | self-splicing fitness (ln) (30 °C) | self-splicing fitness (ln) (37 °C)
GGCCAGCAAUAUUACGCGGC | -3.46 ± 0.24 | -2.18 ± 0.51
UUACAGCAAUAUUACGCUCU | -1.01 ± 0.074 | -0.47 ± 0.087
UAAAAGCAAUAUUACGAGCC | -1.96 ± 0.6 | -1.17 ± 0.52
CUAAAGCAAUAUUACGCCAC |  | -0.735 ± 0.54
AUCGAGCAAUAUUACGGAAG | -4.74 ± 0.72 | 
UUCUAGCAAUAUUACGAAAG | -5.13 ± 0.72 | -2.87 ± 0.32
CGAUAGCAAUAUUACGUUUC | -4.38 ± 0.6 | 
UGAGAGCAAUAUUACGGAUA | -3.85 ± 0.73 | -2.5 ± 0.26
GAGGAGCAAUAUUACGUAUA | -4.04 ± 0.73 | 
CGGUAGCAAUAUUACGUACU | -1.36 ± 0.15 | -0.578 ± 0.16
GAGUAGCAAUAUUACGAAAA |  | -2.65 ± 0.62
UUCUAGCAAUAUUACGCGUU | -2.47 ± 0.15 | -1.9 ± 0.13
UGGAAGCAAUAUUACGUCCA |  | -2.09 ± 0.64
UCCUAGCAAUAUUACGAUCU | -4.47 ± 0.73 | 
CGACAGCAAUAUUACGCCAC | -2.95 ± 1.1 | 
AUGGAGCAAUAUUACGACCG | -3.83 ± 0.37 | -1.19 ± 0.26
GGUGAGCAAUAUUACGCCAG |  | -0.666 ± 0.61
GGUUAGCAAUAUUACGGGGC | -3.32 ± 0.6 | 
GUGCAGCAAUAUUACGCCCA | -0.167 ± 0.87 | 
CGCAAGCAAUAUUACGCUUA | -3.58 ± 0.35 | -1.8 ± 0.18

Sequence | self-splicing fitness (ln) (30 °C) | self-splicing fitness (ln) (37 °C)
GUUGAGCAAUAUUACGUCCA |  | -3.14 ± 0.52
CAAAAGCAAUAUUACGCUUA | -3.17 ± 0.23 | -2.17 ± 0.15
GAGUAGCAAUAUUACGCCGU | -3.29 ± 0.53 | 
AGGAAGCAAUAUUACGCUGU |  | -0.0487 ± 0.53
UUGGAGCAAUAUUACGAUAG |  | -1.36 ± 0.61
AGGGAGCAAUAUUACGAAAC | 0.285 ± 1.1 | -1.98 ± 0.67
CCAGAGCAAUAUUACGCCGC | -2.27 ± 0.54 | 
CAUGAGCAAUAUUACGUCAA | -4.04 ± 0.33 | -2.64 ± 0.33
CACUAGCAAUAUUACGAAUA | -3.16 ± 0.37 | -2.33 ± 0.18
GGCGAGCAAUAUUACGGCCG | -2.11 ± 0.16 | -0.882 ± 0.2
GCAGAGCAAUAUUACGCUAC | -3.88 ± 1.1 | 
CACAAGCAAUAUUACGAAGU | -3.68 ± 0.16 | -1.43 ± 0.12
CGCUAGCAAUAUUACGCAAA | -2.81 ± 0.53 | 
CGGUAGCAAUAUUACGAACC | -3.76 ± 1 | 
UUGAAGCAAUAUUACGCUGC | -3.03 ± 1.1 | 
GAGGAGCAAUAUUACGCGAG | -2.95 ± 0.61 | 
UAUGAGCAAUAUUACGCGUA | -1.96 ± 1.2 | -1.12 ± 0.93
CUCCAGCAAUAUUACGUAAA | -3.45 ± 0.17 | -2.17 ± 0.18
GUAUAGCAAUAUUACGGAGC |  | -2.08 ± 0.79
UGGUAGCAAUAUUACGGGAU | -3.14 ± 0.36 | -2.32 ± 0.28

Sequence | self-splicing fitness (ln) (30 °C) | self-splicing fitness (ln) (37 °C)
AUCUAGCAAUAUUACGGGCG | -0.656 ± 0.1 | -0.967 ± 0.11
UCGGAGCAAUAUUACGCGAA | -4.49 ± 1 | -3.77 ± 0.52
CGGGAGCAAUAUUACGAGAU | -4.42 ± 1 | 
CUUUAGCAAUAUUACGUGCC | -1.27 ± 0.71 | -1.23 ± 0.6
GCAGAGCAAUAUUACGUUCC | -2.9 ± 0.54 | 
CCUAAGCAAUAUUACGCCUU | -3.22 ± 0.21 | -2.79 ± 0.26
GGGGAGCAAUAUUACGGCAG |  | -1.69 ± 0.82
UUGCAGCAAUAUUACGCGCC |  | -0.753 ± 0.53
GGGGAGCAAUAUUACGGAAA | -1.07 ± 0.67 | 
CGCAAGCAAUAUUACGCUAC |  | -2.82 ± 0.48
AAUUAGCAAUAUUACGGACC | -2.03 ± 0.51 | 
UCAAAGCAAUAUUACGAUAA | -1.43 ± 0.11 | -0.335 ± 0.13
AGGGAGCAAUAUUACGCCAC |  | -2.58 ± 0.76
GGUAAGCAAUAUUACGGACC |  | -0.665 ± 0.56
GGUAAGCAAUAUUACGCCUG | -3.68 ± 0.6 | 
CCUUAGCAAUAUUACGUCCA | -4.13 ± 0.59 | 
UAUGAGCAAUAUUACGGGCU | -3.62 ± 0.53 | 
CUACAGCAAUAUUACGCACC | -2.79 ± 1.2 | -2.87 ± 1
GUUAAGCAAUAUUACGUGGC | -2.56 ± 0.55 | -2.1 ± 0.33

Quoted from the listing:
self-splicing fitness (ln) (30 °C), CGGGAGCAAUAUUACGAGAU reads -4.42 ± 1
self-splicing fitness (ln) (30 °C), CCUUAGCAAUAUUACGUCCA reads -4.13 ± 0.59
